# Data from the supplement of paper PMC9233669.
# Variants at the background level are over-represented here.
# Legend:
# biotinyl-Trp-oxazolone = assay: self-aminoacylation, catalytic enhancement (BWO) (fold over background); higher = more active; k-Seq, kA / k0A0; sequences stand for … in GGGAAUGGAUCCACAUCUACGAAUUC…UUCACUGCAGACUUGACGAAGCUG
# Method in brief: (§1)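 Mutagenized RNA pools with a 21-nt variable region (0.43 μM) were reacted with each biotinyl-aminoacyl-oxazolone at 2–1250 μM for 90 minutes at room temperature, in 50 μL HEPES/NaCl/KCl/MgCl2/CaCl2 buffer containing 5% acetonitrile at pH 6.9–7.0. RNA captured on streptavidin was quantified by triplicate qPCR and by Illumina sequencing. The fraction reacted for each sequence was fit to a pseudo-first-order model with bootstrapping, and catalytic enhancement is the median kA divided by the uncatalyzed rate, taken as the low-activity peak of a bimodal Gaussian fit.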
# biotinyl-Leu-oxazolone = assay: self-aminoacylation, catalytic enhancement (BLO) (fold over background); higher = more active; k-Seq, kA / k0A0; sequences stand for … in GGGAAUGGAUCCACAUCUACGAAUUC…UUCACUGCAGACUUGACGAAGCUG
# Method in brief: as §1
# biotinyl-Val-oxazolone = assay: self-aminoacylation, catalytic enhancement (BVO) (fold over background); higher = more active; k-Seq, kA / k0A0; sequences stand for … in GGGAAUGGAUCCACAUCUACGAAUUC…UUCACUGCAGACUUGACGAAGCUG
# Method in brief: as §1
# biotinyl-Ile-oxazolone = assay: self-aminoacylation, catalytic enhancement (BIO) (fold over background); higher = more active; k-Seq, kA / k0A0; sequences stand for … in GGGAAUGGAUCCACAUCUACGAAUUC…UUCACUGCAGACUUGACGAAGCUG
# Method in brief: as §1
# biotinyl-Met-oxazolone = assay: self-aminoacylation, catalytic enhancement (BMO) (fold over background); higher = more active; k-Seq, kA / k0A0; sequences stand for … in GGGAAUGGAUCCACAUCUACGAAUUC…UUCACUGCAGACUUGACGAAGCUG
# Method in brief: as §1
Sequence,self-aminoacylation (biotinyl-Trp-oxazolone),self-aminoacylation (biotinyl-Leu-oxazolone),self-aminoacylation (biotinyl-Val-oxazolone),self-aminoacylation (biotinyl-Ile-oxazolone),self-aminoacylation (biotinyl-Met-oxazolone)
AUUCACAUAGGUGAUCGGGUG [Fam2.2 aminoacylation ribozyme variant],3.79,3.56,3.14,3.05,3.4
CUAGUUCAAACAUUCGGUCUG [Fam1A.1 aminoacylation ribozyme variant],0.958,1.31,1.56,1.38,1.46
GUACUGCAAACAAUCGGUCUG [Fam1A.1 aminoacylation ribozyme variant],1.23,1.24,1.1,1.3,0.971
AAGUUUGCUAAUCGACGCAAG [Fam3.1 aminoacylation ribozyme variant],0.72,0.477,0.547,0.534,0.581
CCCCACUACAAGCAAUCGGUC [Fam1B.1 aminoacylation ribozyme variant],1.85,1.19,1.58,1.4,0.908
AGGUUUGCUUAUAGUCGCAAG [Fam3.1 aminoacylation ribozyme variant],1.68,1.53,1.43,1.63,1.88
AAGUUUACUAAAAGUCGCAAG [Fam3.1 aminoacylation ribozyme variant],1.67,–,1.61,1.85,1.7
AAGUUCGGUAAUAGUCGCAAG [Fam3.1 aminoacylation ribozyme variant],1.98,1.86,1.91,1.84,1.69
AAGGUUGCUAAUAGUCGCACG [Fam3.1 aminoacylation ribozyme variant],1.09,1.3,0.86,1.09,1.14
CCACGCUUCAAACAAUCGGUC [Fam1B.1 aminoacylation ribozyme variant],45.3,2.17,1.42,1.22,1.41
AUUACCCUGGGCAACGAGUGA [Fam2.1 aminoacylation ribozyme variant],10.3,10.3,4,3.81,7.64
GAGUUUGCUAAUAGCCGCAAG [Fam3.1 aminoacylation ribozyme variant],1.89,1.78,1.35,1.45,1.35
ACACACUUCAAGCCAUCGGUC [Fam1B.1 aminoacylation ribozyme variant],2,–,1.89,1.72,1.85
AUUCACCUAGGUCUUCAGGUG [Fam2.2 aminoacylation ribozyme variant],1.62,–,1.86,1.77,–
AAUUUUGGUAAUAGUCGCAAG [Fam3.1 aminoacylation ribozyme variant],1.77,1.8,1.56,2.06,–
CGACACUUCACGCAAUCGGUC [Fam1B.1 aminoacylation ribozyme variant],1.7,–,1.75,1.56,1.4
AUUCACCUAGGUCAUCGAGUU [Fam2.2 aminoacylation ribozyme variant],1.92,–,–,–,–
AUUACCCUGGUCACCGAGUAA [Fam2.1 aminoacylation ribozyme variant],1.65,–,–,1.88,–
UUACUUCAAACAAUCGGUCUA [Fam1A.1 aminoacylation ribozyme variant],–,0.683,0.75,0.808,0.828
AUUCGCCUAGGUCAUCGGAUG [Fam2.2 aminoacylation ribozyme variant],–,0.903,1.07,0.941,0.94
CUACUUCAAGCAAUCGGUCCG [Fam1A.1 aminoacylation ribozyme variant],–,1.09,0.982,1,0.902
CCACACGUCAAGCAAUCGGCC [Fam1B.1 aminoacylation ribozyme variant],–,0.806,1.54,1.05,1.33
AUCACCCUGGUCAUCGAAUGA [Fam2.1 aminoacylation ribozyme variant],–,1.29,1.41,1.26,1.13
AAGUUGGCUAAAAGUCGCAAG [Fam3.1 aminoacylation ribozyme variant],1.51,1.67,1.49,–,1.46
CUAUUUCAAACAACCGGUCUG [Fam1A.1 aminoacylation ribozyme variant],–,0.844,0.861,0.992,0.85

Sequence,self-aminoacylation (biotinyl-Trp-oxazolone),self-aminoacylation (biotinyl-Leu-oxazolone),self-aminoacylation (biotinyl-Val-oxazolone),self-aminoacylation (biotinyl-Ile-oxazolone),self-aminoacylation (biotinyl-Met-oxazolone)
CAACACUUCAAGCAAUCGGGC [Fam1B.1 aminoacylation ribozyme variant],1.69,–,–,–,–
CAACAUCAAACAAUCGGUCUG [Fam1A.1 aminoacylation ribozyme variant],–,0.886,0.87,1.1,0.835
AUUGACCUAGGUCAUCGGGAG [Fam2.2 aminoacylation ribozyme variant],–,1.35,1.48,1.67,1.33
CUACUUCAAGCAAUCGGUCUG [Fam1A.1 aminoacylation ribozyme variant],–,1.15,0.943,0.907,0.95
AAGUUUGCUGAUACUCGCAAG [Fam3.1 aminoacylation ribozyme variant],–,0.885,0.897,1.11,0.744
CUACACUUCAAGUAAUCGGUC [Fam1B.1 aminoacylation ribozyme variant],–,0.807,0.613,0.647,0.657
CUACUUCAAACAAUCGGUCGG [Fam1A.1 aminoacylation ribozyme variant],–,1.7,1.13,1.15,1.2
CUACUUCAAAAAAUCGGUAUG [Fam1A.1 aminoacylation ribozyme variant],–,0.691,0.728,0.769,0.727
AUUACCGUGGUCAUCGCGUGA [Fam2.1 aminoacylation ribozyme variant],–,21.5,11,8.94,17.7
CUAGUUCAAACAAUCGGUCUG [Fam1A.1 aminoacylation ribozyme variant],–,1.03,0.846,0.91,0.89
AAGCUUGAUAAUAGUCGCAAG [Fam3.1 aminoacylation ribozyme variant],–,1.2,1.6,1.41,1.73
AUUCACCUAGGUCAUCUCGUG [Fam2.2 aminoacylation ribozyme variant],1.8,–,1.45,1.29,1.72
AUUCACAUAGGUCGUCGGGUG [Fam2.2 aminoacylation ribozyme variant],1.73,–,1.88,1.73,1.96
CCCCACUUAAAGCAAUCGGUC [Fam1B.1 aminoacylation ribozyme variant],–,1.21,1.71,1.53,1.19
AUUACAGUGGUCAUCGAGUGA [Fam2.1 aminoacylation ribozyme variant],–,1.44,1.76,1.75,1.87
AAGGUUGCUAAUAGUCGCAGG [Fam3.1 aminoacylation ribozyme variant],–,1.85,1.47,1.57,1.79
AUACUUCAAACAAUCGGUCGG [Fam1A.1 aminoacylation ribozyme variant],–,1.18,0.883,1,1.07
CUUCUUCAAACAAUCGGUUUG [Fam1A.1 aminoacylation ribozyme variant],–,1.26,0.875,0.861,0.884
AUUCACCUUGGUCAUCGGGUC [Fam2.2 aminoacylation ribozyme variant],–,1.15,1.58,1.2,1.32
CAACUUCAAACAAUCGGUCCG [Fam1A.1 aminoacylation ribozyme variant],–,1.2,0.944,0.872,0.704
AUUACCCUGGUGAUCCAGUGA [Fam2.1 aminoacylation ribozyme variant],–,9.64,4.65,4.33,9.84
CAACUUCAAACAAUCGCUCUG [Fam1A.1 aminoacylation ribozyme variant],–,1.41,1.31,1.34,1.14
CCACACUUCAAGCCAUAGGUC [Fam1B.1 aminoacylation ribozyme variant],–,0.632,0.688,0.812,0.622
CUACUUCAAACAAUCGGUCAC [Fam1A.1 aminoacylation ribozyme variant],–,0.863,0.816,0.703,0.719
